The text below walks through data of PMC6044906.

For the test, the target named is ZMYND10 (mouse (endogenous in testes and oviduct)). Nature of the test: affinity purification with mass spectrometry; endogenous ZMYND10 precipitated from P30 mouse testes extracts with two polyclonal antibodies (Sigma, Proteintech), on-bead digestion, label-free quantification against IgG controls, CRAPome filter.

Results are given in words; binding and its absence hold for the method and conditions named. In cells and extracts the contact can be indirect. A yes stands for co-enrichment or nearness to the bait. Other partners may have been found. A no says only that the protein was not detected with the bait.

B1: LRRC6 (protein, UniProt O88978 1-473)
chain: MGRITEDLIRRNAEHNDCVIFSLEELSLHQQEIERLEHIDKWCRDLKILYLQNNLIGKIENVSKLKKLEYLNLALNNIERIENLEGCEWLTKLDLTVNFIGELSSVKTLTHNIHLKELFLMGNPCADFDGYRQFVVVTLQQLKWLDGKEIERSERIQALQNYTSVEQQIREQEKAYCLRRAKEKEEAQRKLEEENESEDKKKSSTGFDGHWYTDIHTACPSATENQDYPQVPETQEEQHNTKESDDIEDDLAFWNKPSLFTPESRLETLRHMEKQRKAQDKLSEKKKKAKPPRTLITEDGKVLNVNEAKLDFSLKDDEKHNQIILDLAVYRYMDTSLIEVDVQPTYVRVMVKGKPFQLALSTEVQPDRSSAKRSQTTGHLLICMPKVGEMITGGQRTPTSVKTTSTSSREQTNPRKKQIERLEVDPSKHSCPDVSTIVQEKRHRPKRMESQPRDEPSEEDPDFEDNPEVPPLI
Turning to B1, the binding entry is on record as “no binding”.
